{"source": "PubChem BioAssay AID1224826 (NIAID, 2016)", "screen": "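Knock-downs that raise or lower Tnf reporter signal after endotoxin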 (primary screen)", "cell system": "RAW264.7 G9 macrophages from mouse bearing reporters for p65 (GFP) and the Tnf promoter (mCherry)", "reagent": "siRNA pool against mouse genes, 100 nM", "time to read-out": "16 h of LPS stimulation, after 2 days of siRNA transfection", "conditions": "bacterial lipopolysaccharide (Salmonella minnesota R595), 10 ng/ml", "measured": "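Nuclear mCherry signal of the Tnf promoter reporter measured by imaging after background removal, scaled to each plate median and turned into robust z-scores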", "reading the numbers": "Tnf reporter robust z-score: higher = stronger Tnf promoter reporter signal after LPS", "active means": "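Called active when robust z-score is at most -1.3, matching the median of the Tlr4 knock-down control, or over 3; control wells and wells with under 50 cells never active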", "calls": "active = Tnf reporter clearly lowered or raised; inactive = no clear change in Tnf reporter", "note": "This is a random part of about 17,000 reagents tested. In the full data, about 1,110 (6.6%) got an active call. 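Active means lowered or raised reporter signal; replicate intensities are raw and not normalised per plate.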 A number with no mark means an inactive call. Further read-outs or replicates are left out here."}
{"gene":"Eif3m (eukaryotic translation initiation factor 3, subunit M)","Tnf reporter robust z-score":-1.09,"fewer than 50 cells in well":"enough cells in well"}
{"gene":"Srcin1 (SRC kinase signaling inhibitor 1)","fewer than 50 cells in well":"fewer than 50 cells per well; well left out of calls"}
{"gene":"Rap2c (RAP2C, member of RAS oncogene family)","Tnf reporter robust z-score":1.21,"fewer than 50 cells in well":"enough cells in well"}
{"gene":"Cxcl5 (C-X-C motif chemokine ligand 5)","Tnf reporter robust z-score":0.89,"fewer than 50 cells in well":"enough cells in well"}
{"gene":"Hoxc10 (homeobox C10)","Tnf reporter robust z-score":-0.68,"fewer than 50 cells in well":"enough cells in well"}
{"gene":"Or1j10 (olfactory receptor family 1 subfamily J member 10)","Tnf reporter robust z-score":0,"fewer than 50 cells in well":"enough cells in well"}
{"gene":"Ciao2a (cytosolic iron-sulfur assembly component 2A)","Tnf reporter robust z-score":0.86,"fewer than 50 cells in well":"enough cells in well"}
{"gene":"Slc17a1","Tnf reporter robust z-score":2.84,"fewer than 50 cells in well":"enough cells in well"}
{"gene":"Nutf2 (nuclear transport factor 2)","Tnf reporter robust z-score":-1,"fewer than 50 cells in well":"enough cells in well"}
{"gene":"Ca15 (carbonic anhydrase 15)","Tnf reporter robust z-score":-1.19,"fewer than 50 cells in well":"enough cells in well"}
{"gene":"Nr3c2 (nuclear receptor subfamily 3, group C, member 2)","Tnf reporter robust z-score":-0.2,"fewer than 50 cells in well":"enough cells in well"}
{"gene":"Klra9 (killer cell lectin-like receptor subfamily A, member 9)","Tnf reporter robust z-score":0.06,"fewer than 50 cells in well":"enough cells in well"}

A portion of the results above, for reference:
{"gene":"Nutf2 (nuclear transport factor 2)","Tnf reporter robust z-score":-1,"fewer than 50 cells in well":"enough cells in well"}
{"gene":"Ca15 (carbonic anhydrase 15)","Tnf reporter robust z-score":-1.19,"fewer than 50 cells in well":"enough cells in well"}

Further entries:
{"gene":"Or4p8 (olfactory receptor family 4 subfamily P member 8)","Tnf reporter robust z-score":-0.52,"fewer than 50 cells in well":"enough cells in well"}
{"gene":"Prag1 (PEAK1 related kinase activating pseudokinase 1)","Tnf reporter robust z-score":-0.28,"fewer than 50 cells in well":"enough cells in well"}
{"gene":"Ctsj (cathepsin J)","Tnf reporter robust z-score":-0.46,"fewer than 50 cells in well":"enough cells in well"}
{"gene":"Slc15a1","Tnf reporter robust z-score":0.18,"fewer than 50 cells in well":"enough cells in well"}
{"gene":"S100a6 (S100 calcium binding protein A6 (calcyclin))","Tnf reporter robust z-score":-0.26,"fewer than 50 cells in well":"enough cells in well"}
{"gene":"Mcpt9 (mast cell protease 9)","Tnf reporter robust z-score":-0.59,"fewer than 50 cells in well":"enough cells in well"}
{"gene":"Inpp5k (inositol polyphosphate 5-phosphatase K)","Tnf reporter robust z-score":-0.56,"fewer than 50 cells in well":"enough cells in well"}
{"gene":"Rnf2 (ring finger protein 2)","fewer than 50 cells in well":"fewer than 50 cells per well; well left out of calls"}
{"gene":"Il13ra2 (interleukin 13 receptor, alpha 2)","Tnf reporter robust z-score":-0.52,"fewer than 50 cells in well":"enough cells in well"}
